From patent US9358247B2, “Methods and compositions for promoting activity of anti-cancer therapies” (Oncology Research International Limited, priority 2006, dated 2016) come the findings set out here.

Holding throughout (assay): Cancer cell growth inhibition, SRB dye assay (single agents and 50:50 IC50 mixtures)
Type in all cases: cell-based
On the technique in general: The SRB assay estimates cell density from bound dye.

In assay [1] the test system is A549 cell line. The settings on record: Homo sapiens, 144 h, single agent, Example 2. The method, then:
(§1) Cancer cells were seeded the day before application of drug in triplicate or quadruplicate in 96-well plates, allowed to grow in the presence of drug for 6 days before cell growth relative to untreated control wells was determined with a dye assay.
(§2) Cells were seeded in triplicate or quadruplicate at 3-4,000 per microtitre well in 90 μl of RPMI culture medium/10% foetal calf serum/penicillin, streptomycin mix, treated with 10 μl of drug (prepared in a dilution plate at 10× concentration required), and allowed to grow until the controls were nearly confluent (6 days).
(§3) SRB: Plates were washed with PBS, fixed with methylated spirits, washed with tap water and stained with 50 μL/well of SRB solution (sulforhodamine, 0.4% in 1% acetic acid), followed by washing with tap water and 1% acetic acid, solubilisation in Tris and absorbance read at 564 nm in an ELISA reader.
(§4) Data was collected using ELISA plate reader software—SOFTmax PRO3.1.2, then imported into EXCEL. The mean and SD of replicates were calculated as a % of control, after subtraction of the blank value (wells with no cells). A graph was plotted of % control vs dose of agent and IC50 (half maximal inhibitory concentration) values determined.
(§5) Tumour cells were seeded in duplicate in 96-well plates at 2-5,000 per microtitre well containing RPMI culture medium/10% foetal calf serum. The cells were allowed to grow until the controls were nearly confluent after 5-6 days. Plates were then washed with PBS, fixed in ethanol and stained with 50 μL/well of SRB solution (sulforhodamine, 0.4% in 1% acetic acid), followed by washing with 1% acetic acid and solubilisation in Tris. The absorbance was read at 564 nm using an ELISA reader.
(§6) The IC50, or concentration required to inhibit cell growth by 50%, was determined from the percentage inhibition versus concentration data using the probit calculation methods of Finney (Finney D J (1971). Probit Analysis. 3rd Edition. Cambridge University Press).
(§7) The inhibitory data from each mixture was used to determine an IC50 of IC50 value, where the concentrations used were the Multiplying Factor values. In order to determine the actual IC50 contribution of each component in the two-component mixture, the IC50 of IC50 value was multiplied by the IC50 of the individual component. This can then be used to determine the reduction in IC50 contribution (ie, reduction in dose) of the chemotherapeutic agent due to the presence of the steroid saponin in the mixture. A simpler way of determining the reduction in dose is to use the following simple formula: […]

In assay [2] the test system is HT29 cell line. The settings on record: Homo sapiens, HT-29, 144 h, single agent, Example 2. The method, then:
as §1, §2, §3, §4, §5, §6, §7

The subject of assay [3] is PC3 cell line. Conditions: Homo sapiens, PC-3, 144 h, single agent, Example 2. Here is the method: as §1, §2, §3, §4, §5, §6, §7
The test system of assay [4] is DU145 cell line. Conditions: Homo sapiens, DU-145, 144 h, single agent, Example 2. The method, then:
as §1, §2, §3, §4, §5, §6, §7

Assay [5] deals with MCF7 cell line. Conditions: Homo sapiens, 144 h, single agent, Example 2. Here is the method: (§8) Cancer cells were seeded the day before application of drug in triplicate or quadruplicate in 96-well plates, allowed to grow in the presence of drug for 6 days before cell growth relative to untreated control wells was determined with a dye assay. Cells were seeded in triplicate or quadruplicate at 3-4,000 per microtitre well in 90 μl of RPMI culture medium/10% foetal calf serum/penicillin, streptomycin mix, treated with 10 μl of drug (prepared in a dilution plate at 10× concentration required), and allowed to grow until the controls were nearly confluent (6 days). SRB: Plates were washed with PBS, fixed with methylated spirits, washed with tap water and stained with 50 μL/well of SRB solution (sulforhodamine, 0.4% in 1% acetic acid), followed by washing with tap water and 1% acetic acid, solubilisation in Tris and absorbance read at 564 nm in an ELISA reader. Data was collected using ELISA plate reader software—SOFTmax PRO3.1.2, then imported into EXCEL. The mean and SD of replicates were calculated as a % of control, after subtraction of the blank value (wells with no cells). A graph was plotted of % control vs dose of agent and IC50 (half maximal inhibitory concentration) values determined. […] The cells were allowed to grow until the controls were nearly confluent after 5-6 days. […] The absorbance was read at 564 nm using an ELISA reader. […]

Assay [6] relates to LNCap cell line. The settings on record: Homo sapiens, 144 h, single agent, Example 2. Here is the method: as §8
The test system of assay [7] is K562 cell line. The settings on record: Homo sapiens, 144 h. Here is the method:
as §1, §2, §3, §4
Tumour cells were seeded in duplicate in 96-well plates at 2-5,000 per microtitre well containing RPMI culture medium/10% foetal calf serum. […]

Like-named read-outs stand apart in the source and are kept apart here.

Turning to `Cc1ccc(NC(=O)c2ccc(CN3CCN(C)CC3)cc2)cc1Nc1nccc(-c2cccnc2)n1` [Imatinib], the half-maximal inhibitory concentration (IC50) in assay [1], in assay [2], in assay [3], in assay [4], in assay [5] and in assay [6] was over 700 nM each time. Besides, the IC50 – broadly, the concentration that inhibits the measured activity by half – in assay [7] (Example 6, value used to make up 50:50 IC50 mixtures, read-out: IC50 values used in assay) turned out to be 90 nM; in assay [7] (single agent, Example 2, read-out: IC50), 85 nM.
